Source: article PMC10762094
No constants are given. Whether binding was seen depends on the method and setting. In cells and extracts the contact can be indirect. Here binding means that the protein was enriched with, or labelled near, the bait; the list need not be complete. For some of these results: Tags and fused reporters may be left off the sequences shown.

Protein sequences, listed by entry. Tags and fused reporters are not part of them. Lines headed by an entry give the natural chain unless they say otherwise; changes in a name come on top.
UniProt Q4X158: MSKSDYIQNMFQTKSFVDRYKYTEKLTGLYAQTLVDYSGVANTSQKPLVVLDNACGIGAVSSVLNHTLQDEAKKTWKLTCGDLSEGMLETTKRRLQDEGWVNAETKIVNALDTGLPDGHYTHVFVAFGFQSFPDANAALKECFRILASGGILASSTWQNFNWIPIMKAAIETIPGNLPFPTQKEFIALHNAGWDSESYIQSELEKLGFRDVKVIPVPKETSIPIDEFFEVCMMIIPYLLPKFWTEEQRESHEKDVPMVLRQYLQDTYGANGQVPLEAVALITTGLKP
UniProt Q4WI09: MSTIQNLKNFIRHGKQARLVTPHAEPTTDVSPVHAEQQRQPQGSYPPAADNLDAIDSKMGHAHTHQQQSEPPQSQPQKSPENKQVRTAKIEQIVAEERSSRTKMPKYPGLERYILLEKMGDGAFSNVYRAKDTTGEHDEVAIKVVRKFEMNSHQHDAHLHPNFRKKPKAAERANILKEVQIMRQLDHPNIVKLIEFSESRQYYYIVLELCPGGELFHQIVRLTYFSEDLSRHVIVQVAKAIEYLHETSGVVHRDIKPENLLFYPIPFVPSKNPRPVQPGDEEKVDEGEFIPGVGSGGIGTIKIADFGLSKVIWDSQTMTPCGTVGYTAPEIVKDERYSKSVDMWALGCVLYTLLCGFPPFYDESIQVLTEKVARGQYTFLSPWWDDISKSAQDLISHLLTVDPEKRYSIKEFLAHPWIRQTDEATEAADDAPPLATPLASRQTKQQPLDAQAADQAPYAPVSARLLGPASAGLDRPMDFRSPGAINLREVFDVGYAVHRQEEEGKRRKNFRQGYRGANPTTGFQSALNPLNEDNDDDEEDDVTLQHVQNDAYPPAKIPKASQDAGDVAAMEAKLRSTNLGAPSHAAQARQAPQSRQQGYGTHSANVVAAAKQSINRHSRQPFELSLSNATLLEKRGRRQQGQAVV
UniProt Q4WW00: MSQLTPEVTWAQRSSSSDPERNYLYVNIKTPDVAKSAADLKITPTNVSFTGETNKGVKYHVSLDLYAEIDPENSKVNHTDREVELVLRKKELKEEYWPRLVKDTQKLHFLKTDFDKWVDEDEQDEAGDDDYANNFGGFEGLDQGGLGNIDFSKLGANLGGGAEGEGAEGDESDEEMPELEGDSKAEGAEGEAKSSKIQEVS
UniProt Q4X0F2: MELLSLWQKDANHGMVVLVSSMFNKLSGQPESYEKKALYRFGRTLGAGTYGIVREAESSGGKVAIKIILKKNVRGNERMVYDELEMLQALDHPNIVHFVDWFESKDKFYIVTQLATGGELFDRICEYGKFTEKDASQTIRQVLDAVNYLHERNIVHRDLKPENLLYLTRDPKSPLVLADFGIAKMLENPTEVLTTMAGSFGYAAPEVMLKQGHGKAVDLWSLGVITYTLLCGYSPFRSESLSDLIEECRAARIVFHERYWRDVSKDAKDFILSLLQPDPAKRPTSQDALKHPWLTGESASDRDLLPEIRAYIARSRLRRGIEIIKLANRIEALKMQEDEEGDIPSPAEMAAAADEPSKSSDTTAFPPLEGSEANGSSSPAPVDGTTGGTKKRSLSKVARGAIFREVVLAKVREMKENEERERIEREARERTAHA
UniProt Q4WM81: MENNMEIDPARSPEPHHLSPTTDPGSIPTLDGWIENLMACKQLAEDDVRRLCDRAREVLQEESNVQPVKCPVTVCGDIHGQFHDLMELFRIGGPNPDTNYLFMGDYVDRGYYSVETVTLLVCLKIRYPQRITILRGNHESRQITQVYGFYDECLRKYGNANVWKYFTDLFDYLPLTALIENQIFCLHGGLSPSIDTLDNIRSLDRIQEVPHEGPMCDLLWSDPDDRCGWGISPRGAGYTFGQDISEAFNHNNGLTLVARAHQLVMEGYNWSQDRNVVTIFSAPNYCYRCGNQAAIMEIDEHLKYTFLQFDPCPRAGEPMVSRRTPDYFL
UniProt Q4WN17: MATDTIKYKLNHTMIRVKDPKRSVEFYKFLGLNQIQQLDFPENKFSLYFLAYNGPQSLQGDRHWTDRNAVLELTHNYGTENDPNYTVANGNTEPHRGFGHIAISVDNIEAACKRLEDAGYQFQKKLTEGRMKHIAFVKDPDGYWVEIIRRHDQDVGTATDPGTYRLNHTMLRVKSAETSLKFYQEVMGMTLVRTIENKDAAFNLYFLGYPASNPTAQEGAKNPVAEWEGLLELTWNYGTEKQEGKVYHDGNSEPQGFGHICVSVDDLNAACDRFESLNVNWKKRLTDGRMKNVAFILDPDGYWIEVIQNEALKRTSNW
UniProt Q4WY97: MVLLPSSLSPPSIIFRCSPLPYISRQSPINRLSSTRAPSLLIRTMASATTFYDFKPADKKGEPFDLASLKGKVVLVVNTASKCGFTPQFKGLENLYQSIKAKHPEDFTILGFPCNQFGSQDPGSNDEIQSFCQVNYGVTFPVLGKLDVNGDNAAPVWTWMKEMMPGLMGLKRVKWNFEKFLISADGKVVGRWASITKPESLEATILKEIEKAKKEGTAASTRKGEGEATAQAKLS
UniProt Q4WXF4: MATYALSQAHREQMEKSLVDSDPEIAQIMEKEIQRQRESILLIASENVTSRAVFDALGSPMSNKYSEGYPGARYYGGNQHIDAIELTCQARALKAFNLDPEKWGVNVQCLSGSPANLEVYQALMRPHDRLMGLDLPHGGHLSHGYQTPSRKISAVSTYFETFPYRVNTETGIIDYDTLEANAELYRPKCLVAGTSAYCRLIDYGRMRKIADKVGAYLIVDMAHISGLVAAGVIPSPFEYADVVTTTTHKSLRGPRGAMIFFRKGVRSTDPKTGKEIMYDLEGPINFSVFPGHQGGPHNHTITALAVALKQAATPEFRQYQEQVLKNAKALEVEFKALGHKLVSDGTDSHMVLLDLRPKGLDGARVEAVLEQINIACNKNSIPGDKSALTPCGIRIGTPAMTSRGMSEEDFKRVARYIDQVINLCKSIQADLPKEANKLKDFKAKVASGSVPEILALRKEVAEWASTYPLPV

Columns and labels:
GliT:GFP (A. fumigatus) = molecular target: T1, GliT:GFP (A. fumigatus) (UniProt E9RAH5); experiment: affinity purification with mass spectrometry
T1 sequence: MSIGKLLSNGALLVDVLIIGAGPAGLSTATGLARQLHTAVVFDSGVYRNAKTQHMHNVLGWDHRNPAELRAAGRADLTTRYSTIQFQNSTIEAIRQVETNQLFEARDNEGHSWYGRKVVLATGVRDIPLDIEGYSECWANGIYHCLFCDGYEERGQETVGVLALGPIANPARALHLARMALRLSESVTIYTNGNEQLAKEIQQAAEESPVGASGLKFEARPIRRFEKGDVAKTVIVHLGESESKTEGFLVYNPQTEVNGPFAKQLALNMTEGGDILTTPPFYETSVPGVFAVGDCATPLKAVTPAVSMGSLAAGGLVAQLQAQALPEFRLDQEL

GtmA:GFP (A. fumigatus) = GtmA:GFP (A. fumigatus) (UniProt Q4X158); experiment: affinity purification with mass spectrometry

Row | Molecule | binding (GliT:GFP (A. fumigatus)) | binding (GtmA:GFP (A. fumigatus))
1 | Calcium/calmodulin-dependent protein kinase (Afu2g03490) (from UniProt Q4WI09) | binds | binds
2 | Wos2, Hsp90 binding co-chaperone (from UniProt Q4WW00) | binds | 
3 | Calcium/calmodulin-dependent protein kinase (Afu2g13680) (from UniProt Q4X0F2) |  | binds
4 | PphB, protein serine/threonine phosphatase activity (from UniProt Q4WM81) |  | binds
5 | Lactoylglutathione lyase (Afu6g07940) (from UniProt Q4WN17) | binds | 
6 | Glutathione peroxidase; peroxiredoxin (Afu3g12270) (from UniProt Q4WY97) | binds | 
7 | Serine hydroxymethyltransferase (Afu3g09320) (from UniProt Q4WXF4) | binds | binds
8 | GliG, glutathione S-transferase encoded in the gliotoxin biosynthetic gene cluster (protein, UniProt A4GYZ0 1-240) MSERPSDLVVNRLVLFVVKGTATSTHNTVKPLILLEELGVPHDIYVVEKVSAPWFSEINPHKMVPAILDRSPDGRDTLRAWESTSTLMYIADAYDKDGTLGGRNVQERSEINNWLTLHTAALGPTAKYWLYFYKLHPEKLPKTIEKLRSNITVQYDILERRLNEPGQQYLALKDRPTIADIATLPFAMKSTAELFGLEFEKWPKLQEWSVRMGEREAVKRAWQRVAGFGHGEKEYGMLEA |  | binds
9 | PtcB, type 2 C protein phosphatase (PP2C) involved in dephosphorylation of SakA MAP kinase (protein, UniProt Q4WTH5 1-429) MRTCGTSSEGQDECCLYGLSAMQGWRISMEDAHAAVLDLQAKSTGGSEKPTDPDKRLAFFGVYDGHGGDKVALFAGENVHKIVAKQEAFAKGDIEQALKDGFLATDRAILEDPKYEEEVSGCTAAVSVISKNKIWVANAGDSRSVLGVKGRAKPLSFDHKPQNEGEKARISAAGGFVDFGRVNGNLALSRAIGDFEFKKSPELSPEQQIVTAYPDVTVHEVTDDDEFLVIACDGIWDCQSSQSVVEFVRRGIAAKQELYRICENMMDNCLASNSETGGVGCDNMTMIIIGLLNGKTKEEWYNQISERVANGDGPCAPPEYGKSEFRGPGIRNQFEETPDNYDLENDRSRGFSVRSGRIILLGDGTELIPEQNDEELFDQREENRDVTNHLQHDKAEETSTAANLSESPSSANKNSSGSGTEATEKSASS |  | binds
10 | GliN, methyltransferase, encoded in the putative gliotoxin biosynthetic gene cluster (protein, UniProt Q4WMJ1 1-282) MTVLPDSENGYLLNYEDQEKRRMNMQHDLIKTYMGKLILAPLPFDQPNLRVLDSGTFNGLWLEDASTLLQSPTLVGTDVSPTAFPAKRPPNTEFHVQSISDPWPTEWRDSFDLVHQKLVIACVPPDEGRQALYRLIDLAKPGTGWVQFTEGSLEHLTPEQRKQYPVLARFQSLVAEMLPHFRWNPRPGKLVRQWLEEYGLQEVQEKVMEIPIGAGNPDPKLGEMAKQNMLEVVSNFRTAATRLPDGTGIRAEDFDPILRDIKVEFETVGGILRFNTVWGRRP | binds | binds
